Consider 10 substances from publication PMC13156308.

By UniProt entry, the sequences of proteins in these tests, tags left out. Where a name states a change or a piece, a line headed by the entry shows the natural chain unless it says otherwise. Chains listed by the source or under a name are the forms on record and can include a tag or linker.
UniProt P97310: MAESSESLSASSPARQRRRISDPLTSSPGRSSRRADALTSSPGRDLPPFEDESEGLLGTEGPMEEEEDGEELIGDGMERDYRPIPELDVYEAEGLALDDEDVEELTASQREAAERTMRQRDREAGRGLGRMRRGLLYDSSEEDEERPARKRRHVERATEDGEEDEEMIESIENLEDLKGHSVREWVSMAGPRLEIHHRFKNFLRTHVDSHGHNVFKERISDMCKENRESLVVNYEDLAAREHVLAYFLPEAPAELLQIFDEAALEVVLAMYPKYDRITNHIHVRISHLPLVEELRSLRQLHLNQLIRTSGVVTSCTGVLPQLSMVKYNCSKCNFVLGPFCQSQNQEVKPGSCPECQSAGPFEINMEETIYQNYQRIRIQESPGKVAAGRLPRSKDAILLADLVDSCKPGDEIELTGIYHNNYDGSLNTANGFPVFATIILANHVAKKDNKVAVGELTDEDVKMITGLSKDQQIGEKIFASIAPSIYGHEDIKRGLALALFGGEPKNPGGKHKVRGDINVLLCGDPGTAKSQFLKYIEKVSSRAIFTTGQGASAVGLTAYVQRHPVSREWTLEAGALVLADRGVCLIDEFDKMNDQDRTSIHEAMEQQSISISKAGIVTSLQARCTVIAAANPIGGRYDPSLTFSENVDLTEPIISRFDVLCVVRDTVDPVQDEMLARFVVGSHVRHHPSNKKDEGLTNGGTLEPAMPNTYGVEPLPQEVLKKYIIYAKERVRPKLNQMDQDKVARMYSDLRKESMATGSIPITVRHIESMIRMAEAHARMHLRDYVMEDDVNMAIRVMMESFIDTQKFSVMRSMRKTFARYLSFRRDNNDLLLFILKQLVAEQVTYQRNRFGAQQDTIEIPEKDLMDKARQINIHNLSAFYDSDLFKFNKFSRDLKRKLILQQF
MCM2-2A-TurboID-3xHA (mouse) (P97310, form named): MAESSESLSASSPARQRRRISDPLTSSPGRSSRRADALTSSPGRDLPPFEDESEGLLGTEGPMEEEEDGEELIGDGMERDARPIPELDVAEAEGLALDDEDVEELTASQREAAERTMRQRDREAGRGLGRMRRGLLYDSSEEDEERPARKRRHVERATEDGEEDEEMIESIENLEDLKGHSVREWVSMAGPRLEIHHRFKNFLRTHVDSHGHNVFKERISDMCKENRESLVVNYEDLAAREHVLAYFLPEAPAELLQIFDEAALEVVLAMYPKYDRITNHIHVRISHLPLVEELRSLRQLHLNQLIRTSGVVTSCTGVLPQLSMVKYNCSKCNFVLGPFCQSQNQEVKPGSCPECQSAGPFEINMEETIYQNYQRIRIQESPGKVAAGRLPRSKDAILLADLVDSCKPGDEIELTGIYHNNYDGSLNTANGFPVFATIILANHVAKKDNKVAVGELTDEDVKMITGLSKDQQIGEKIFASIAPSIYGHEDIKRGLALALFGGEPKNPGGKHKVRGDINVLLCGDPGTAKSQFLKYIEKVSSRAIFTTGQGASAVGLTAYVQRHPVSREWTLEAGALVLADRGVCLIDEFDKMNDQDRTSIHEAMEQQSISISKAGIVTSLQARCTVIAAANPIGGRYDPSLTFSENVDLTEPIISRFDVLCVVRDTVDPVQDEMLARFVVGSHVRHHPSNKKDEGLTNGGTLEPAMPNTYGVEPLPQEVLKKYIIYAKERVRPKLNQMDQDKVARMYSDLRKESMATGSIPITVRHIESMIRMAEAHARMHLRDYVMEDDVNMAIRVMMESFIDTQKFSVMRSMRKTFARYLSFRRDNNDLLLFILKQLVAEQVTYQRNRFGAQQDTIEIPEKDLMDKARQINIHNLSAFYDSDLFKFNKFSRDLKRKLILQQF
UniProt O70126: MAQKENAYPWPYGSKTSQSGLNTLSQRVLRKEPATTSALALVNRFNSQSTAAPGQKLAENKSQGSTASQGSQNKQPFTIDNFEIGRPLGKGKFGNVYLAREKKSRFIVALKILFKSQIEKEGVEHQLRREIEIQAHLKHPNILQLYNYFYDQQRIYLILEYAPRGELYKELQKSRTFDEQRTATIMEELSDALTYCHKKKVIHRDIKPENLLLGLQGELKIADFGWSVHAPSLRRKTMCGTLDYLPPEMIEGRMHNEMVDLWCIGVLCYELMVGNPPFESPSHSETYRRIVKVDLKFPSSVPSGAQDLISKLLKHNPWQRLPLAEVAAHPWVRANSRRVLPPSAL
UniProt Q9JJ66: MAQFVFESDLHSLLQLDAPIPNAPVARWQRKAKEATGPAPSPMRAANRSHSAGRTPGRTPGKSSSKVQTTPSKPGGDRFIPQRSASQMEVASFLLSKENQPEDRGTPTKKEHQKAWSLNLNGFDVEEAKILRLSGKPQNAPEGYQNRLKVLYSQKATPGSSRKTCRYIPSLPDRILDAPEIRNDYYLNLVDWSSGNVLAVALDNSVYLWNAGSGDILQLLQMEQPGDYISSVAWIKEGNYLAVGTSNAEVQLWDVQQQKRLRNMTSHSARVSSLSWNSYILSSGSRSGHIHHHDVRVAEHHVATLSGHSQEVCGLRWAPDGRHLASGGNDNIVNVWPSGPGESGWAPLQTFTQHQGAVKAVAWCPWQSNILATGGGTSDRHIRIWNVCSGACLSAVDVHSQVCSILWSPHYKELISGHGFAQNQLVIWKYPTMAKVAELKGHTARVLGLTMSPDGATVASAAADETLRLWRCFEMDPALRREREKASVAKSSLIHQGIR
UniProt Q9QWF0: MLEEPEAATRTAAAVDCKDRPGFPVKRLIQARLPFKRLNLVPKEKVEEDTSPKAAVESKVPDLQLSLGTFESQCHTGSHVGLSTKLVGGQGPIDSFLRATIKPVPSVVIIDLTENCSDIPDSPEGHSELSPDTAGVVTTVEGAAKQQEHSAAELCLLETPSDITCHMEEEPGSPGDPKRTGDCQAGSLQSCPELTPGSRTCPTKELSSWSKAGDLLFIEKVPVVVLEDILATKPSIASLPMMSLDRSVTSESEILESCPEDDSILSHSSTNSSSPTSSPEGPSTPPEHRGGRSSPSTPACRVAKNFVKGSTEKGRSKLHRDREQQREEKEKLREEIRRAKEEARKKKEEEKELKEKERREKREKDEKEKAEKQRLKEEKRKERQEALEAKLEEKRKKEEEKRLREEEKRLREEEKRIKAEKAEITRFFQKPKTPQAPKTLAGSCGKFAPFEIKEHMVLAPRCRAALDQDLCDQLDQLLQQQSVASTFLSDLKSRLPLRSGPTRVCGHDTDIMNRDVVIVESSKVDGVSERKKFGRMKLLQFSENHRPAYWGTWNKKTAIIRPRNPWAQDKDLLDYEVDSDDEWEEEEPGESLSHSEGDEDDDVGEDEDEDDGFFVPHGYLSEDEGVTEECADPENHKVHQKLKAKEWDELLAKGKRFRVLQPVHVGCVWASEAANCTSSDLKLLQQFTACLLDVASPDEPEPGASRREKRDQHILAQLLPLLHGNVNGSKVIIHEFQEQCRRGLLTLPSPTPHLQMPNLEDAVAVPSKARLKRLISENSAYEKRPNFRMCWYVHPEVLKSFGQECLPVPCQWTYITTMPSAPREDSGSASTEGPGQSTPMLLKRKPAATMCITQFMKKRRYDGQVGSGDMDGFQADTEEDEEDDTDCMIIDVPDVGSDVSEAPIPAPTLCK
UniProt Q9D0N7: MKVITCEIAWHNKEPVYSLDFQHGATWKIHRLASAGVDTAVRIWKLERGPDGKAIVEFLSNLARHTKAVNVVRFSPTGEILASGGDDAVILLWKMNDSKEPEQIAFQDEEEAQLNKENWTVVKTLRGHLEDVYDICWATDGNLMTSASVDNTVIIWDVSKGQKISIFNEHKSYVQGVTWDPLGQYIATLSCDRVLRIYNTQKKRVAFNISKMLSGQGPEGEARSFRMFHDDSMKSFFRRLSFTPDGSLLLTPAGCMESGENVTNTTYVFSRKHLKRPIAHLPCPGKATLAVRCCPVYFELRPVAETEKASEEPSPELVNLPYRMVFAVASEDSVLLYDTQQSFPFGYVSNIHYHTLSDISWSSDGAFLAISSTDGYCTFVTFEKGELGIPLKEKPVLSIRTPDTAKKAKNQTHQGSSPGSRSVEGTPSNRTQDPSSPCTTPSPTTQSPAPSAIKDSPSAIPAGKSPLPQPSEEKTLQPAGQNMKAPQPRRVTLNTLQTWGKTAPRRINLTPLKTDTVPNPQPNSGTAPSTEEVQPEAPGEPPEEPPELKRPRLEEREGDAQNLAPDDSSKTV
UniProt Q99MD9: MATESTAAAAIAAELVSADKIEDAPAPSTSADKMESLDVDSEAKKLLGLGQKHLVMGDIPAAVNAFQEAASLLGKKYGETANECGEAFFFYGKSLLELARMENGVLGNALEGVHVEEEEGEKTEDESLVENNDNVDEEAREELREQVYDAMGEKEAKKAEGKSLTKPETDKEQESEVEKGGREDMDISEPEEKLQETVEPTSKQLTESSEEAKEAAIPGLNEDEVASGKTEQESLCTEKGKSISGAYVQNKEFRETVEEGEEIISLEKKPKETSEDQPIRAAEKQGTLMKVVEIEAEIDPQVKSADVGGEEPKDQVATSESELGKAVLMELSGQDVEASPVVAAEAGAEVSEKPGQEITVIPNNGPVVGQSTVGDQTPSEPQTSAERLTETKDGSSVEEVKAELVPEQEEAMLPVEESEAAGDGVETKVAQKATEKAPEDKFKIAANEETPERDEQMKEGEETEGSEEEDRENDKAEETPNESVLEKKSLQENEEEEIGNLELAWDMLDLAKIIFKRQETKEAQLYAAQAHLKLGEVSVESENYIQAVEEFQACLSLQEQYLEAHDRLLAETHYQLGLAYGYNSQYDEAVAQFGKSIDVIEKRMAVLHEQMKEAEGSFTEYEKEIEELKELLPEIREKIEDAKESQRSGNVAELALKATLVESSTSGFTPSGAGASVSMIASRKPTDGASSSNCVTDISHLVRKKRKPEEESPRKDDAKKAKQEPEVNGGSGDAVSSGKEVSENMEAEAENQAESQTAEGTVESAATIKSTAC
UniProt Q61937: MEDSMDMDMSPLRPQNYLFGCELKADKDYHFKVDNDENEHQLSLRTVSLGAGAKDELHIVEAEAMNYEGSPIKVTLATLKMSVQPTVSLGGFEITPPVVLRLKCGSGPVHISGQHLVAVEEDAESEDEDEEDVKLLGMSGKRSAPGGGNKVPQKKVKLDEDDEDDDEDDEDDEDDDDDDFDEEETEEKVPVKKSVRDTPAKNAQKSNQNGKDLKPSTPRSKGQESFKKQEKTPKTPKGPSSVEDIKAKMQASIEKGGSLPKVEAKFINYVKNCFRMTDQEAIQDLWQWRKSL
UniProt Q8VEE4: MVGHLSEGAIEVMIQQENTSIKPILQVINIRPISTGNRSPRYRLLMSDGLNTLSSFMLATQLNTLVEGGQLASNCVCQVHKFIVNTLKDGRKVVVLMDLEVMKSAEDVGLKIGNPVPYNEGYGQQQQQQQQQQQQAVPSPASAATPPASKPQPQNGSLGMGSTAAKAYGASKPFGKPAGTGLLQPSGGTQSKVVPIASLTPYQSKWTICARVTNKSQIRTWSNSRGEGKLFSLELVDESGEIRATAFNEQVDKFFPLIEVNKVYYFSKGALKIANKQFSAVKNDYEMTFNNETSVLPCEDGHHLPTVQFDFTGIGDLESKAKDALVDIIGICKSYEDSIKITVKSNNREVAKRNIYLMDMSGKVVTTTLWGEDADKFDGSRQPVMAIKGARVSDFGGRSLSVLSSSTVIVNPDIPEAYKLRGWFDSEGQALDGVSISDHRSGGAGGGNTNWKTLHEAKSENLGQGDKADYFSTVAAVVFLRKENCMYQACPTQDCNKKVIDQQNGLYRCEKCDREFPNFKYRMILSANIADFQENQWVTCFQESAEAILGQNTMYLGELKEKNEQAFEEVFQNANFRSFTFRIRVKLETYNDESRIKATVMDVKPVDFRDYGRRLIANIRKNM
UniProt Q08943: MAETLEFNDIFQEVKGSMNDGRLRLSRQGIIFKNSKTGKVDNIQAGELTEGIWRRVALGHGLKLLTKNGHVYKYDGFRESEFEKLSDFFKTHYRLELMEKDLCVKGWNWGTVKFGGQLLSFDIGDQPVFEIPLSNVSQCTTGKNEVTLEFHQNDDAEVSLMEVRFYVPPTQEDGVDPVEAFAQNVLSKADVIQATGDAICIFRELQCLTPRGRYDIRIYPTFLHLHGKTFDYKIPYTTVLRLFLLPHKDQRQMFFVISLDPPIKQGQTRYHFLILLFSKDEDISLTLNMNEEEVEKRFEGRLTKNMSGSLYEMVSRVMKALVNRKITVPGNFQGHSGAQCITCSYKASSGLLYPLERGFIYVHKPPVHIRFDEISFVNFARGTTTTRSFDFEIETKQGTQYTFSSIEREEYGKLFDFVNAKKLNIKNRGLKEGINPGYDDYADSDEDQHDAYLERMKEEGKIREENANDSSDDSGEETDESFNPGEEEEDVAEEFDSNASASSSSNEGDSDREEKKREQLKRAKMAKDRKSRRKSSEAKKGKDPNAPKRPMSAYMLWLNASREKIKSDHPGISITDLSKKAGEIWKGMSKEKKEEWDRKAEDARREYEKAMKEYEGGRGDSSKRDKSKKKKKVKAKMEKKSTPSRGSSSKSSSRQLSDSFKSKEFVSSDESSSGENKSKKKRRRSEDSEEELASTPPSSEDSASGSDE

Test [1] deals with T1, POLE3-TurboID (mouse) (UniProt Q9JKP7).
T1 sequence: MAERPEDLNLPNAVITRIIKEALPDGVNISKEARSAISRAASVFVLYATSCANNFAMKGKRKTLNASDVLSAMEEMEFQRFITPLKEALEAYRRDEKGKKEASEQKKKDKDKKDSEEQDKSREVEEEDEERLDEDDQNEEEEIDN
Nature of the test: proximity labelling; bait-TurboID stably expressed in S-phase-synchronised NIH3T3 cells, 500 uM biotin 1 h, RIPA lysis, streptavidin beads, LC-MS/MS, four replicates; enriched: bait/Control >2, P <0.05.

In test [2] the target is MCM2-TurboID-3xHA (mouse) (mouse) (UniProt P97310). The test is described as above.
In test [3] the target is T2, POLE4-TurboID (mouse) (UniProt Q9CQ36).
T2 sequence: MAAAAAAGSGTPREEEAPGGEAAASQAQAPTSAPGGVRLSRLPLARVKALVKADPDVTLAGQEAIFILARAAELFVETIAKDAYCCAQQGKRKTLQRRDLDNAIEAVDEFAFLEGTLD
Described as above.

Test [4] addresses MCM2-2A-TurboID-3xHA (mouse) (mouse) (UniProt P97310). Described as above.
The target in test [5] is T1, POLE3-TurboID (mouse). Nature of the test: proximity labelling; streptavidin beads from bait-TurboID NIH3T3 cells, read by western blot.

No constants are given. Whether binding was seen depends on the method and setting. In cells and extracts the contact can be indirect. A yes stands for co-enrichment or nearness to the bait. Other partners may have been found.

Turning to “Aurora kinase B (AURKB) (from UniProt O70126 1-345)”, the binding result in test [1], in test [2] and in test [3] was “binds” throughout.

Turning to CDC20 (from UniProt Q9JJ66 1-499), the binding entry in test [1] and in test [3] was “binds” in each case.

As to CHAF1A (from UniProt Q9QWF0 1-911), the binding result in test [1], in test [2] and in test [3] was “binds” throughout.

Take CHAF1B (from UniProt Q9D0N7 1-572): the binding result in test [1], in test [2] and in test [3] was “binds” throughout.

For the substance CHTF18 (from UniProt Q8BIW9 1-969), the binding result in test [1] and in test [3] was “binds” in each case.

Take DNMT1 (from UniProt P13864 1-1620): the binding entry in test [4] and in test [2] was “binds” in each case.

Take NASP (from UniProt Q99MD9 1-773): the binding entry in test [1], in test [2] and in test [3] was “binds” throughout.

Take NPM1 (from UniProt Q61937 1-292): the binding result in test [1], in test [2], in test [3] and in test [5] was “binds” in each case.

Regarding RPA1 (from UniProt Q8VEE4 1-623), the binding entry in test [1], in test [2] and in test [3] was “binds” throughout.

In the case of “SSRP1 (mouse) (from UniProt Q08943 1-708)”, the binding result in test [1], in test [2] and in test [3] was “binds” in each case.
